Assay results taken from publication PMC11166463.
These are yes or no findings as the source states them, for the method shown. For some assays here: Binding calls can cover weak binding; strength is not graded here. Tags and fused reporters may be left off the sequences shown. For some assays here: Binding seen in cells or lysates may run through a third protein. Blank lines part the entries; values can stand above or below the molecule they belong to.

Experiments:
GST–DPF3a (human) = target: T1, GST–DPF3a (human) (UniProt Q92784); assay: pull-down; GST recombinant proteins immobilised on glutathione-conjugated sepharose beads, incubated with lysates of mock or transfected U2OS cells at 4°C for 2 h, western blot; only the target purified
T1 sequence: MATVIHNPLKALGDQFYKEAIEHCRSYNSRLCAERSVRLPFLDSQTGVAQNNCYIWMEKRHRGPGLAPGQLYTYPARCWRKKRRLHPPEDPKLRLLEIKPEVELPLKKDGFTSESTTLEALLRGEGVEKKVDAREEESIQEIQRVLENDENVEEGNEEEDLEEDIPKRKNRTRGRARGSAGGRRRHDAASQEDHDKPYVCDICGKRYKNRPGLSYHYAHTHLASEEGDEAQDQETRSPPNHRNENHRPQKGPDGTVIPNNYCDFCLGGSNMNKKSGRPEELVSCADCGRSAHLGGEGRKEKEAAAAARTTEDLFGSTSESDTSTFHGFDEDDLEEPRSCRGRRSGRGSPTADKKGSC

[1] = target: taxol-stabilized microtubules; assay: co-sedimentation; pre-cleared GST–DPF3a or GST–DPF3b incubated with 2 µM taxol-stabilized microtubules for 30 min at room temperature, centrifuged at 100,000 g for 40 min, pellet and supernatant on SDS-PAGE with Coomassie blue staining; both purified

- binding (GST–DPF3a (human)): no binding
Molecule: endogenous α-tubulin (U2OS cells) (human (endogenous in U2OS))

- binding [1]: binds
B1: GST–DPF3a (protein, UniProt Q92784-2 1-357)
chain: T1 sequence
